Data reported in patent US20180086841A1.

Tests used:
[1] = target: HsCD27 (D249H); assay: flow cytometry on transiently transfected CHO-K1 cells
[2] = target: MmCD27 (H258D); assay: as above

binding [1]: no binding
binding [2]: binds
B1: hCD27.15-c4 (antibody, human IgG4 S228P, kappa, V domains shown)
VH: EVRLQQSGADLVKPGASVKLSCTASGFIIKATYMHWVRQRPEQGLEWIGRIDPANGETKYDPKFQVKATITADTSSSTAYLQLNSLTSDDTAVYYCARYAWYFDVWGAGTTVTVSS
VL: DIQMTQSPASLSASVGDTVTITCRASENIYSFLAWYHQKQGRSPQLLVYHAKTLAEGVPSRFSGSGSGTQFSLKINSLQAEDFGSYYCQHYYGSPLTFGAGTKLEVKR

No constants are given. Whether binding was seen depends on the method and setting. For some assays here: Binding calls can cover weak binding; strength is not graded here.
